Reference: article PMC9177963
These are yes or no findings as the source states them, for the method shown. Binding seen in cells or lysates may run through a third protein. Some entries that bind do so weakly or less than the wild type. Blank lines part the entries; values can stand above or below the molecule they belong to.

Chains of the proteins cited; added tags and fusions are not shown.
UniProt Q9Z1E3: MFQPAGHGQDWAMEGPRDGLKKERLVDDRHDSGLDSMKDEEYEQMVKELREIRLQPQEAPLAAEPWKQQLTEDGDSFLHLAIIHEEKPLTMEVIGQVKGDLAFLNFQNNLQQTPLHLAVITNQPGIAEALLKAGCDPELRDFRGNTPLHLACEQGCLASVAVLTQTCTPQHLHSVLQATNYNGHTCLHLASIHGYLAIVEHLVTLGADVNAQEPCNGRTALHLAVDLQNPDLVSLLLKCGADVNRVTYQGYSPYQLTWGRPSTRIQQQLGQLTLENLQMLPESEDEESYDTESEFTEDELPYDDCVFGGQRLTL
UniProt Q02248: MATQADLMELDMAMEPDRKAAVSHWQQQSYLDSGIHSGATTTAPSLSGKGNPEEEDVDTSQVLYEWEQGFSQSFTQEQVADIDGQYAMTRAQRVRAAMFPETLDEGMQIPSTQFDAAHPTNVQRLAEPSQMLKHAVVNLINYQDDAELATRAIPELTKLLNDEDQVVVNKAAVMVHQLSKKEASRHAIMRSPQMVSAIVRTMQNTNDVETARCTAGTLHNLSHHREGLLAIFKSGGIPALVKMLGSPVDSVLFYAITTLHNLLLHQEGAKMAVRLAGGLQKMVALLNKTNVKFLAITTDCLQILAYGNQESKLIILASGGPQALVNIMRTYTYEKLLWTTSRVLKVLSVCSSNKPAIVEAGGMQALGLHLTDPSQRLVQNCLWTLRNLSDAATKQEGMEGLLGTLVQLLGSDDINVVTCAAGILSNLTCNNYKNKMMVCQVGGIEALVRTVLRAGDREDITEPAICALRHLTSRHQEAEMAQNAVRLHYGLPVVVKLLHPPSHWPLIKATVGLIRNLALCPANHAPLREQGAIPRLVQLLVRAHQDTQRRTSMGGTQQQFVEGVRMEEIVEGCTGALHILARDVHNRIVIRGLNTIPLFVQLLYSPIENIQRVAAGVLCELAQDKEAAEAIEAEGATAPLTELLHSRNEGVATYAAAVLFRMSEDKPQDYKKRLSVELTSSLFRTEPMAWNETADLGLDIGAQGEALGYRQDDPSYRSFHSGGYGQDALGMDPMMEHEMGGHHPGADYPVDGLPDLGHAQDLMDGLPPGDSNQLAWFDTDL
UniProt O88522: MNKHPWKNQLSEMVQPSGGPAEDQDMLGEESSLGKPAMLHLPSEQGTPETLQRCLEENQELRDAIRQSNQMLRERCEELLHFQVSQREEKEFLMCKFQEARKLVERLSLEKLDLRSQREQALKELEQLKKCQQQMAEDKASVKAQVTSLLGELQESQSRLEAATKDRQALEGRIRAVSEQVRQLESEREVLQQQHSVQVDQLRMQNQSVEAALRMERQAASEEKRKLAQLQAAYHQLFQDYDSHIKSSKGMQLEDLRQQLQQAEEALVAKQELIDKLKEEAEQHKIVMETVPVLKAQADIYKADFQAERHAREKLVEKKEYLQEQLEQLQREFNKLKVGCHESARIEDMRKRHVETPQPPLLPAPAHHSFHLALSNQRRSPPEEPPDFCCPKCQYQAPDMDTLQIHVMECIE

Key:
USP26 in 293 T cells = molecular target: T1, USP26 in 293 T cells (UniProt Q99MX1); assay: co-IP; 293 T cells ectopically expressing a Flag-tagged protein; whole-cell extracts, USP26 immunoprecipitates and the reverse (anti-Flag) immunoprecipitates, protein A&G beads, western blot
T1 sequence: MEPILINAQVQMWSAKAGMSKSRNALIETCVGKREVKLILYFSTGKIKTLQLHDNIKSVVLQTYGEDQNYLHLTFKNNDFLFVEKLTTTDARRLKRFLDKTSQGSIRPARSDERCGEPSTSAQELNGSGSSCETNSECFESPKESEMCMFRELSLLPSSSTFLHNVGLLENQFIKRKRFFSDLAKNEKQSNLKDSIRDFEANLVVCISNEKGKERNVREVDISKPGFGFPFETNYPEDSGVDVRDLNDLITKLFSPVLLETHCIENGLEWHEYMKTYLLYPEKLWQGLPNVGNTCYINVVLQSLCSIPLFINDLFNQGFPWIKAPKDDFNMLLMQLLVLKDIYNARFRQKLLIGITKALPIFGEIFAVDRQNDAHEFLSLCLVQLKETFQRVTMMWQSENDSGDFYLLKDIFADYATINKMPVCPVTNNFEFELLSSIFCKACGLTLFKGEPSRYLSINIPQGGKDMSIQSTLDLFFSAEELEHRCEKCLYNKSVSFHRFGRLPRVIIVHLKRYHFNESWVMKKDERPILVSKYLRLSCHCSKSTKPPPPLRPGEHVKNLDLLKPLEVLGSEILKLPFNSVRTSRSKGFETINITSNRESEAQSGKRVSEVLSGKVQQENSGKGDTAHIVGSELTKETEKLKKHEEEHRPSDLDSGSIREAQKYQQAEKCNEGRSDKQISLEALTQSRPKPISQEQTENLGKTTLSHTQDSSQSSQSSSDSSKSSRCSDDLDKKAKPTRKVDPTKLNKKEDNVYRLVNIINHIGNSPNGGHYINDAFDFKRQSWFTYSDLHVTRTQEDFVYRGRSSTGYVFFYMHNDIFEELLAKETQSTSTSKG

[1] = molecular target: T2, USP26 (ubiquitin-specific protease 26) (mouse (endogenous in mouse MSCs and BMMs)) (UniProt Q99MX1); assay: co-IP; endogenous proteins in mouse BMM whole-cell extracts; USP26 immunoprecipitates immunoblotted with antibodies against IKKα, IKKβ, IKKγ and IκBα
T2 sequence: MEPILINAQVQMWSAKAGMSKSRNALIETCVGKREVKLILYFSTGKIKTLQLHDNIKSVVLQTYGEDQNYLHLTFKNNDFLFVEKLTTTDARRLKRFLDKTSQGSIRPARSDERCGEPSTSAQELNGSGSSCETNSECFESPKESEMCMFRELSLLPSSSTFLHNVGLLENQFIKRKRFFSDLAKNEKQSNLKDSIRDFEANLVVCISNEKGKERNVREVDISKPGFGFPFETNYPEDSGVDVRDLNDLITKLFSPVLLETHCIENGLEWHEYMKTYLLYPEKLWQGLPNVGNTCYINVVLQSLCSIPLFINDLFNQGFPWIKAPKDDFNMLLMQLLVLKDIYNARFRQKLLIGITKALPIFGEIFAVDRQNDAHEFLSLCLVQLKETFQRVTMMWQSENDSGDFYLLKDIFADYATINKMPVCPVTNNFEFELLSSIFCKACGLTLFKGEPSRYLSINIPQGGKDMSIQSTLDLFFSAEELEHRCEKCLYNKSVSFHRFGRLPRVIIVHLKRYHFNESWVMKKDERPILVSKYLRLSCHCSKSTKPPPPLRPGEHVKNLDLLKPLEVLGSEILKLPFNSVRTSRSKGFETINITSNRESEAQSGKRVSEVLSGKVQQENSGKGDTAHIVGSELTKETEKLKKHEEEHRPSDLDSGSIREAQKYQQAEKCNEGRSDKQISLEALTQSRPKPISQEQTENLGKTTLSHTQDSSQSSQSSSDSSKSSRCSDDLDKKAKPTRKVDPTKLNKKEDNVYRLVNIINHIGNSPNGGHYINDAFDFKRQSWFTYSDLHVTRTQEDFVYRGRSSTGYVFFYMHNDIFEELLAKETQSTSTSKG

[2] = molecular target: T2, USP26 (ubiquitin-specific protease 26) (mouse (endogenous in mouse MSCs and BMMs)); assay: co-IP; endogenous proteins in mouse MSC whole-cell extracts; anti-USP26 antibody against control IgG, overnight at 4 °C, protein A&G beads, western blot
Flag-tagged IκBα = Flag-tagged IκBα (UniProt Q9Z1E3); assay: co-IP; 293 T cells ectopically expressing a Flag-tagged protein; whole-cell extracts, USP26 immunoprecipitates and the reverse (anti-Flag) immunoprecipitates, protein A&G beads, western blot
Flag-tagged β-catenin = Flag-tagged β-catenin (UniProt Q02248); assay: as above

Molecule: Flag-tagged IκBα (from UniProt Q9Z1E3 1-314)
binding (USP26 in 293 T cells): binds

Molecule: Flag-tagged β-catenin (from UniProt Q02248 1-781)
binding (USP26 in 293 T cells): binds

Molecule: IκBα (inhibitor of NF-κBα) (from UniProt Q9Z1E3 1-314)
binding [1]: binds

Molecule: β-catenin (from UniProt Q02248 1-781)
binding [2]: binds

B3: USP26 in 293 T cells (enzyme, UniProt Q99MX1 1-835)
chain: MEPILINAQVQMWSAKAGMSKSRNALIETCVGKREVKLILYFSTGKIKTLQLHDNIKSVVLQTYGEDQNYLHLTFKNNDFLFVEKLTTTDARRLKRFLDKTSQGSIRPARSDERCGEPSTSAQELNGSGSSCETNSECFESPKESEMCMFRELSLLPSSSTFLHNVGLLENQFIKRKRFFSDLAKNEKQSNLKDSIRDFEANLVVCISNEKGKERNVREVDISKPGFGFPFETNYPEDSGVDVRDLNDLITKLFSPVLLETHCIENGLEWHEYMKTYLLYPEKLWQGLPNVGNTCYINVVLQSLCSIPLFINDLFNQGFPWIKAPKDDFNMLLMQLLVLKDIYNARFRQKLLIGITKALPIFGEIFAVDRQNDAHEFLSLCLVQLKETFQRVTMMWQSENDSGDFYLLKDIFADYATINKMPVCPVTNNFEFELLSSIFCKACGLTLFKGEPSRYLSINIPQGGKDMSIQSTLDLFFSAEELEHRCEKCLYNKSVSFHRFGRLPRVIIVHLKRYHFNESWVMKKDERPILVSKYLRLSCHCSKSTKPPPPLRPGEHVKNLDLLKPLEVLGSEILKLPFNSVRTSRSKGFETINITSNRESEAQSGKRVSEVLSGKVQQENSGKGDTAHIVGSELTKETEKLKKHEEEHRPSDLDSGSIREAQKYQQAEKCNEGRSDKQISLEALTQSRPKPISQEQTENLGKTTLSHTQDSSQSSQSSSDSSKSSRCSDDLDKKAKPTRKVDPTKLNKKEDNVYRLVNIINHIGNSPNGGHYINDAFDFKRQSWFTYSDLHVTRTQEDFVYRGRSSTGYVFFYMHNDIFEELLAKETQSTSTSKG
binding (Flag-tagged IκBα): binds
binding (Flag-tagged β-catenin): binds

The remaining lines, values ahead:

binding [1]: no binding
Molecule: IKKγ (from UniProt O88522 1-412)

binding [1]: no binding
B1: IKKβ (enzyme, UniProt O88351 1-757)
chain: MSWSPSLPTQTCGAWEMKERLGTGGFGNVIRWHNQATGEQIAIKQCRQELSPKNRNRWCLEIQIMRRLNHPNVVAARDVPEGMQNLAPNDLPLLAMEYCQGGDLRRYLNQFENCCGLREGAVLTLLSDIASALRYLHENRIIHRDLKPENIVLQQGEKRLIHKIIDLGYAKELDQGSLCTSFVGTLQYLAPELLEQQKYTVTVDYWSFGTLAFECITGFRPFLPNWQPVQWHSKVRQKSEVDIVVSEDLNGAVKFSSSLPFPNNLNSVLAERLEKWLQLMLMWHPRQRGTDPQYGPNGCFRALDDILNLKLVHVLNMVTGTVHTYPVTEDESLQSLKTRIQENTGILETDQELLQKAGLVLLPDKPATQCISDSKTNEGLTLDMDLVFLLDNSKINYETQITPRPPPESVSCILQEPKRNLSFFQLRKVWGQVWHSIQTLKEDCNRLQQGQRAAMMSLLRNNSCLSKMKNAMASTAQQLKAKLDFFKTSIQIDLEKYKEQTEFGITSDKLLLAWREMEQAVEQCGRENDVKHLVERMMALQTDIVDLQRSPMGRKQGGTLDDLEEQARELYRKLREKPRDQRTEGDSQEMVRLLLQAIQSFEKKVRVIYTQLSKTVVCKQKALELLPKVEEVVSLMNEDERTVVRLQEKRQKELWNLLKIACSKVRGPVSGSPDSMNVSRLSHPGQLMSQPSSACDSLPESDKKSEELVAEAHALCSRLESALQDTVKEQDRSFTTLDWSWLQMEDEERCSLEQACD

binding [1]: no binding
B2: IKKα (enzyme, UniProt Q60680 1-745)
chain: MERPPGLRPGAGGPWEMRERLGTGGFGNVSLYQHRELDLKIAIKSCRLELSSKNRERWCHEIQIMKKLDHANVVKACDVPEELNFLINDVPLLAMEYCSGGDLRKLLNKPENCCGLKESQILSLLSDIGSGIRYLHENKIIHRDLKPENIVLQDVGGKTIHKIIDLGYAKDVDQGSLCTSFVGTLQYLAPELFENKPYTATVDYWSFGTMVFECIAGYRPFLHHLQPFTWHEKIKKKDPKCIFACEEMTGEVRFSSHLPQPNSLCSLIVEPMESWLQLMLNWDPQQRGGPIDLTLKQPRCFALMDHILNLKIVHILNMTSAKIISFLLPCDESLHSLQSRIERETGINTGSQELLSETGISLDPRKPASQCVLDGVRGCDSYMVYLFDKSKTVYEGPFASRSLSDCVNYIVQDSKIQLPIIQLRKVWAEAVHYVSGLKEDYSRLFQGQRAAMLSLLRYNANLTKMKNTLISASQQLKAKLEFFRKSIQLDLERYSEQMTYGISSEKMLKAWKEMEEKAIHYSEVGVIGYLEDQIMSLHTEIMELQKSPYGRRQGDLMESLEQRAIDLYKQLKHRPPDHLYSDSTEMVKIIVHTVQSQDRVLKELFGHLSKLLGCKQKIIDLLPKVEVALSNIKEADNTVMFMQGKRQKEIWHLLKIACTQSSARSLVGSSLEGTVTPPVSAWLPPTLADREHPLTCVVTPQDGETLAQMIEENLNCLGHLSTIIREANEDQSSSLMSLDWSWLAE
